Data from doi:10.64898/2025.12.09.692982.
These are yes or no findings as the source states them, for the method shown. In cells and extracts the contact can be indirect. Some binding calls cover weakened binding; strength is not graded here. Sequences can lack the tags named with a protein.

Sequences of proteins named here, by UniProt entry; tags and fusion partners are left off. A change or cut given only in a name is not applied to a line headed by its entry.
UniProt P49336: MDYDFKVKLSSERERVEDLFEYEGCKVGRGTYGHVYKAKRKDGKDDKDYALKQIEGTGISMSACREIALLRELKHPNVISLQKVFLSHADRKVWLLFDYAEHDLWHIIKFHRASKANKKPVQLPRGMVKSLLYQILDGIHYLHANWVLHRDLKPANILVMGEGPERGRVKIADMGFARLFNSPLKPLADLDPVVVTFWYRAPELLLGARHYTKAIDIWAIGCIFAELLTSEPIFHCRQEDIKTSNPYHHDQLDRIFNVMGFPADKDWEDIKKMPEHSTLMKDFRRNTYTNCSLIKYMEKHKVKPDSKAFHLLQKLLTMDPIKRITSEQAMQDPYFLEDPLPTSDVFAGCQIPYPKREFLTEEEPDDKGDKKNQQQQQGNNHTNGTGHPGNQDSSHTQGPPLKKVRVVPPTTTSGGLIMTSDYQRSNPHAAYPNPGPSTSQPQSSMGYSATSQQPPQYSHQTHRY
UniProt O00311: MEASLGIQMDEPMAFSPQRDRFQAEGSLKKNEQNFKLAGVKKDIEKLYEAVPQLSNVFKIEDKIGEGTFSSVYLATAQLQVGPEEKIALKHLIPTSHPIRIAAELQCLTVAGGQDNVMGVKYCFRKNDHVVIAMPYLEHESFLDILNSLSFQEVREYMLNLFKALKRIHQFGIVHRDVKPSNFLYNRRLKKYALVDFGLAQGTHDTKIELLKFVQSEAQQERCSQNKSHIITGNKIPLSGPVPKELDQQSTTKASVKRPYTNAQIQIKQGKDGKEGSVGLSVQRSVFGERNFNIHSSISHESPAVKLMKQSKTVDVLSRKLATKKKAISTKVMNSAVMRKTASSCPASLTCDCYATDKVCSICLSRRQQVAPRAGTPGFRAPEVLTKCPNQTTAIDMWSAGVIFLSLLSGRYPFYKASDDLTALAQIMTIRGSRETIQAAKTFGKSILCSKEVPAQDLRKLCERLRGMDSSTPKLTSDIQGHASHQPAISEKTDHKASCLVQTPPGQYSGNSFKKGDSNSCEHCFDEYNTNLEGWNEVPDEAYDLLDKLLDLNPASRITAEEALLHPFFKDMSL

Molecular target: T1, MCM3 protein fused to an ALFA-tag (UniProt P25205)
T1 sequence: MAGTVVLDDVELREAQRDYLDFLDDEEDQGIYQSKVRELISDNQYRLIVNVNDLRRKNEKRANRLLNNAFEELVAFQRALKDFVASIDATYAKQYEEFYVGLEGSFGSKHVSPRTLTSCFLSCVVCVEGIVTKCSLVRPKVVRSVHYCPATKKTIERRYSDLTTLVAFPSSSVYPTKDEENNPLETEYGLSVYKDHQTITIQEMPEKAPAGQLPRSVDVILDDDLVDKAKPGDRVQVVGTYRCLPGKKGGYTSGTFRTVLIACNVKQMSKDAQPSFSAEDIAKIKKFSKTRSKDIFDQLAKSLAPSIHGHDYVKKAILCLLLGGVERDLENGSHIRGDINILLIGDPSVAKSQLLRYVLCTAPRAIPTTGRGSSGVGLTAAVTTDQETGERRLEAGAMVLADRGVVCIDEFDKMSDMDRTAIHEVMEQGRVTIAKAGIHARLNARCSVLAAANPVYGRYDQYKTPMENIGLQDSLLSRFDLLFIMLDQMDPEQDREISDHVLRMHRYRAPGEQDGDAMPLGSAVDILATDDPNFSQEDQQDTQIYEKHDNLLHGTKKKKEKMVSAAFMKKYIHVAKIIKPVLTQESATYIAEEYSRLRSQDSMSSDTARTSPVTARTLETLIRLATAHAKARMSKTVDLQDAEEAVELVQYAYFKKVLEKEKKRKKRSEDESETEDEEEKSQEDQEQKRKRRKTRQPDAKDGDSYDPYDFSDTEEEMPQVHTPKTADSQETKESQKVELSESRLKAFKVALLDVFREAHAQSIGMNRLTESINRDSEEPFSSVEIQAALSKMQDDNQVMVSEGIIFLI
Assay: pull-down

Substance	binding
CDK8/CCNC kinase (from UniProt P49336 1-464; P24863 1-283) (complex)	binds
CDC7 (from UniProt O00311 1-574)	binds
